This is an account of results in publication PMC12040169 (PLOS Biology, 2025).

Molecules are shown by their SMILES. This is one part of the list.

In this assay the test system is T1, CTL2-GFP (C. trachomatis L2/434/Bu, GFP-expressing).
T1 construct: L2/434/Bu, GFP-expressing
Details: species or system HeLa; Intracellular C. trachomatis growth in HeLa cells, bulk GFP fluorescence relative to DMSO. To be noted: bulk GFP, single well; 28.5 h, 10 µM; inhibitor.
For `CCCC1(OC(=O)Nc2ccc(Cl)cc2)CCCCC1` [CBK026295], the “% of control remaining” value worked out at 117.452%.
For `O=C(NCc1ccccc1)c1cnccc1C(F)(F)F` [CBK200194], the “% of control remaining” value turned out to be 101.973%.
`CNC1(c2nnnn2CCOC(=O)Nc2ccc(Cl)cc2)CCCC1` [CBK266253]: the “% of control remaining” value was found to be 104.658%.
For the compound `C=CCNC(=O)N[C@H]1[C@H](O)[C@@H](N2CCC(C(=O)OC)CC2)[C@@H]2OC[C@H]1O2` [CBK288807], the “% of control remaining” value is 145.077%.
Take `C/C(=N\NC(=O)CCN1CCN(C)CC1)c1ccc(O)cc1` [CBK263142]: the “% of control remaining” value was 101.205%.
To `O=C(Nc1cnc(-c2cccc(C(F)(F)F)c2)c(-c2ccco2)n1)c1ccccn1` [CBK036873] belongs 135.024%.
Next, `O=C(Nc1ccc(F)c(F)c1)N[C@H]1CC[C@@]2(c3cccc(Br)c3)CCN(Cc3ccccc3)[C@H]2C1` [CBK047515]: 93.5303%; `CCOc1cc(OCC)cc(C(=O)N2CCCC3(CC2)CC(=O)c2ccc(C)cc2O3)c1` (stereo not drawn) [CBK168241]: 137.401%.
To `COCCN1C(=O)C2(CC(=O)N(CCN3CCCC3=O)C2=O)c2cc(OC)ccc21` (stereo not drawn) [CBK075189] belongs 122.951%; to `COc1cccc(NC(=O)c2cncc(-c3ccc(C(=O)N4CCOCC4)cc3)c2)c1` [CBK160213], 93.7468%.
Take `O=C(Nc1ccc(C(F)(F)F)cc1)N(Cc1ccc2ccccc2c1)CC1CCNCC1` [CBK056720]: the “% of control remaining” value is listed as 131.039%.
To `CC(=O)Oc1cc(C(F)(F)F)nc(NCc2ccc(Cl)cc2)n1` [CBK000500] belongs 96.5497%; to `CCn1cc(C(=O)N2CCn3cc(C(F)(F)F)nc3C2)c(C)n1` [CBK283916], 119.813%.
Regarding `O=C(NCc1nnc(-c2cccs2)o1)c1cccc(Cl)c1` [CBK284633], the “% of control remaining” value is on record as 120.353%.
To `COCCNC(=O)Cn1c(-c2ccco2)cc2cccnc21` [CBK282720] belongs 159.973%; to `O=C(NCC1CCN(c2ccc(F)c(F)c2)C1)c1c[nH]nc1C1CC1` (stereo not drawn) [CBK305409], 123.843%; to `CC(=O)Nc1ccc(S(=O)(=O)NC2(C(F)(F)F)N=C(c3ccccc3)NC2=O)cc1` (stereo not drawn) [CBK267932], 137.125%.
As for `O=C(c1ccco1)N1CCN(c2ncc(-c3ccc(N4CCOCC4)cc3)n3ccnc23)CC1` [CBK091225], the “% of control remaining” value amounted to 85.2419%.
For the compound `Cn1c(-c2ccccc2F)n[nH]c1=S` [CBK028811], the “% of control remaining” value amounted to 137.988%.
As to `COc1cccc(-c2cnc3[nH]c(=O)n(Cc4ccc(Cl)cc4)c3n2)c1` [CBK064596], the “% of control remaining” value was 88.2897%.
On to `CN(c1cccc(NS(=O)(=O)c2ccc3ccccc3c2)c1)S(C)(=O)=O` [CBK267507], for which the “% of control remaining” value is listed as 147.367%.
To `C=CCN1C(=O)C2(CC(=O)N(Cc3ccc(OC)c(OC)c3)C2=O)c2ccccc21` (stereo not drawn) [CBK075148] belongs 92.6618%.
To `CN1CCC(N(C)C(=O)c2cc3oc(-c4ccccc4)nc3c(=O)n2C)C1` (stereo not drawn) [CBK200424T] belongs 116.757%.
To `O=C(Nc1ccccc1)Nc1ccc(=O)n2c1[C@@H]1C[C@@H](CN(C(=O)c3ccc(F)cc3)C1)C2` [CBK288714] belongs 106.298%; to `C[C@@H]1CN(Cc2ccco2)[C@H](C)CN1CC(=O)Nc1nc2c(s1)CCCC2` [CBK286530], 133.426%.
Take `O=C(O)COc1ccc(N2C(=O)c3ccc(Oc4cccc([N+](=O)[O-])c4)cc3C2=O)cc1` [CBK264259]: the “% of control remaining” value came out at 113.424%.
With `CN1CCN(CCCNC(=O)N2CCN(c3ccccc3)CC2)CC1` [CBK155168], the “% of control remaining” value was 105.722%.
With `CCN1C(=O)CC2(C1=O)C(=O)N(CC)c1ccc(C)cc12` (stereo not drawn) [CBK075140], the “% of control remaining” value stood at 107.69%.
On to `O=C(C1=C(O)C(=O)N(Cc2cccnc2)C1c1ccncc1)c1ccc(Cl)cc1` (stereo not drawn) [CBK264513], for which the “% of control remaining” value is recorded as 129.668%.
On to `CCOc1cc(CCC(=O)NC(C)c2ccccc2)on1` (stereo not drawn) [CBK282597], for which the “% of control remaining” value stood at 136.837%.
Regarding `COc1ccccc1C(=O)N1CCC(C(=O)N(C)C(c2ccccc2)c2ncccc2C)CC1` (stereo not drawn) [CBK060531], the “% of control remaining” value came out at 100%.
To `O=[N+]([O-])c1cccc(-c2noc(COc3ccc(Br)cc3Cl)n2)c1` [CBK264452] belongs 116.109%.
In the case of `COc1cccc2cc(C(=O)NCc3ccc(NS(C)(=O)=O)cc3)oc12` [CBK161479], the “% of control remaining” value is listed as 69.5733%.
As to `CC(=O)c1cn(CCC(=O)NC2CCCN(C)C2)c2ccccc12` (stereo not drawn) [CBK282503], the “% of control remaining” value is recorded as 119.17%.
To `COc1ccc(Br)cc1S(=O)(=O)NCC(=O)Nc1ccc(F)cc1` [CBK042223] belongs 102.071%.
Take `O=C(CCOc1ccccc1)Nc1cnc(-c2ccc(F)cc2)c(-c2ccco2)n1` [CBK036967]: the “% of control remaining” value stood at 112.175%.
In the case of `O=C(CC1Nc2ccccc2NC1=O)Nc1ccc(F)c(Cl)c1` (stereo not drawn) [CBK266381], the “% of control remaining” value is listed as 100.938%.
For `C=CCn1c(=O)c(C(=O)NCCCO)c(O)c2ccccc21` [CBK262481], the “% of control remaining” value worked out at 117.405%.
Next, `Cc1ccc(NC(=O)c2cc(NC(=O)c3ccccc3C(=O)O)ccc2N2CCCCC2)cc1` [CBK265332]: 105.946%; `Cc1nn(CC(=O)N2CCCCC2)c(=O)c2cc3sccc3n12` [CBK284040]: 107.89%.
With `COc1ccc(NS(=O)(=O)c2cc(C(=O)O)cc(C)c2C)cc1OC` [CBK295148], the “% of control remaining” value is 121.775%.
With `CC(C)CCc1c(O)nc(SCCN2CCOCC2)n(-c2ccccc2)c1=O` [CBK263363C], the “% of control remaining” value worked out at 100%.
As to `O=C(CSc1ncnc2[nH]ncc12)c1ccc(-c2ccccc2)cc1` [CBK300519], the “% of control remaining” value is 154.006%.
In the case of `O=[N+]([O-])c1ccc(Sc2cccs2)c(C(F)(F)F)c1` [CBK002621], the “% of control remaining” value was 95.3958%.
With `CN1CCC(N[C@H]2CC(C)(C)[C@@H]3C[C@@](C)(O)CC[C@]23CCC(=O)N2CCOCC2)CC1` [CBK289040], the “% of control remaining” value was found to be 146.855%.
Take `Cc1ccc(Nc2ncc(C(=O)NCCCN3CCCCCC3)c3ccccc23)cc1Cl` [CBK291197]: the “% of control remaining” value was found to be 128.824%.
With `O=C(Cn1nnc2ccccc21)NC(c1ccccc1)c1ccccc1` [CBK297488], the “% of control remaining” value amounted to 108.006%.
Take `Cc1ccc(C(=O)C2=C(O)C(=O)N(CCO)C2c2ccccc2[N+](=O)[O-])cc1` (stereo not drawn) [CBK263822]: the “% of control remaining” value is on record as 110.643%.
